{"source": "paper PMC11005040", "about": "“Photoactivatable Ruthenium Complexes Containing Minimal Straining Benzothiazolyl-1,2,3-triazole Chelators for Cancer Treatment” (Inorganic Chemistry, 2024)"}
{"assay": "Singlet oxygen quantum yield (DPBF)", "format": "physicochemical", "conditions": "aerated acetonitrile, irradiation 465 nm"}
{"smiles": "Cc1ccc(-n2cc(-c3nc4ccccc4s3)nn2)cc1.O=S(=O)([O-])C(F)(F)F.O=S(=O)([O-])C(F)(F)F.[Ru+2].c1cnc2c(c1)ccc1cccnc12.c1cnc2c(c1)ccc1cccnc12", "note": "[Ru1, [Ru(phen)2(L1)][OTf]2]", "1O2 generation quantum yield ΦΔ (air)": 0.02}
{"smiles": "FC(F)(F)c1ccc(-n2cc(-c3nc4ccccc4s3)nn2)cc1.O=S(=O)([O-])C(F)(F)F.O=S(=O)([O-])C(F)(F)F.[Ru+2].c1cnc2c(c1)ccc1cccnc12.c1cnc2c(c1)ccc1cccnc12", "note": "[Ru3, [Ru(phen)2(L3)][OTf]2]", "1O2 generation quantum yield ΦΔ (air)": 0.03}
{"smiles": "O=S(=O)([O-])C(F)(F)F.O=S(=O)([O-])C(F)(F)F.O=[N+]([O-])c1ccc(-n2cc(-c3nc4ccccc4s3)nn2)cc1.[Ru+2].c1cnc2c(c1)ccc1cccnc12.c1cnc2c(c1)ccc1cccnc12", "note": "[Ru4, [Ru(phen)2(L4)][OTf]2]", "1O2 generation quantum yield ΦΔ (air)": 0.04}
{"smiles": "CN(C)c1ccc(-n2cc(-c3nc4ccccc4s3)nn2)cc1.O=S(=O)([O-])C(F)(F)F.O=S(=O)([O-])C(F)(F)F.[Ru+2].c1cnc2c(c1)ccc1cccnc12.c1cnc2c(c1)ccc1cccnc12", "note": "[Ru5, [Ru(phen)2(L5)][OTf]2]", "1O2 generation quantum yield ΦΔ (air)": 0.01}
